# Assay results: the supplement of paper PMC9135407
# Several values for one entry are separate records, joined by “and”; a condition that tells them apart may be missing. Equal entries are not always repeated. Structures can show the parent of a compound that is named as a salt. ± gives the standard deviation of the averaged measurements. The list shows a part of the results. Plates or batches differ in their baseline, so values are only roughly comparable.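 Primary human stellate myofibroblasts activated in culture; inactivation shown by regained lipid droplets. Readout: fraction of Hoechst-counted cells exceeding a per-plate Bodipy threshold, duplicate wells, each plate with DMSO negative and nortriptyline positive controls. Hits: control-normalized score beyond the plate's top-tenth-percentile nortriptyline wells, or among its three best wells. Final well concentrations unstated.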
# Test system: primary human hepatic stellate cells (donor 1)
# Test: percent Bodipy-positive cells; higher = more lipid droplet accumulation
# Conditions: 48 h
# [1] = library stock concentration: 3.33 mM
# [2] = library stock concentration: 10 mM
# [3] = library stock concentration: 1 mM
# [4] = library stock concentration: 80 uM
# [5] = library stock concentration: 400 uM
# [6] = library stock concentration: 2 mM
smiles,measurement,setting,value
CCCCOc1cc(C(=O)NCCN(CC)CC)c2ccccc2n1 [Dibucaine HCl],percent Bodipy-positive cells,[1],29.8 ± 2%
CCCCOc1cc(C(=O)NCCN(CC)CC)c2ccccc2n1 [Dibucaine hydrochloride],percent Bodipy-positive cells,library stock concentration: 5.3 mM,46.9 ± 10%
same,percent Bodipy-positive cells,[2],21.8 ± 1.8%
Oc1ccc(-c2nc3cc(O)cc(Br)c3o2)cc1,percent Bodipy-positive cells,[2],9.63 ± 1.5%
O=P(O)(O)C(Cl)(Cl)P(=O)(O)O [Clodronic acid],percent Bodipy-positive cells,[2],38.1 ± 1%
O=C(O)CCC(=O)N1CCC[C@H]1C(=O)O [N-Succinyl-L-proline],percent Bodipy-positive cells,[2],10.4 ± 0.9%
N=C(N)NC(=O)c1nc(Cl)c(N)nc1N [Amiloride hydrochloride],percent Bodipy-positive cells,library stock concentration: 7.5 mM,2.79 ± 1.5%
N=C(N)NC(=O)c1nc(Cl)c(N)nc1N,percent Bodipy-positive cells,library stock concentration: 18.8 mM,18 ± 10%
N=C(N)NC(=O)c1nc(Cl)c(N)nc1N [Amiloride hydrochloride dihydrate],percent Bodipy-positive cells,,26.3 ± 3%
N=C(N)NC(=O)c1nc(Cl)c(N)nc1N [Amiloride HCl],percent Bodipy-positive cells,[1],10.3 ± 3.5%
same,percent Bodipy-positive cells,[2],11.8 ± 1%
N=C(N)NC(=O)c1nc(Cl)c(N)nc1N [Amiloride],percent Bodipy-positive cells,library stock concentration: 8.7 mM,6.94 ± 1%
CC(C)[C@H](O)C(=O)O [(S)-(+)-2-hydroxy-3-Methylbutyric Acid],percent Bodipy-positive cells,[3],31.5 ± 35%
O=C(O)CCC/C=C\C[C@@H]1[C@@H](/C=C/[C@@H](O)COc2cccc(C(F)(F)F)c2)[C@H](O)C[C@@H]1O [Fluprostenol],percent Bodipy-positive cells,[3],22.7% and 6.8%
COC(=O)[C@H]1[C@H]2C[C@@H]3c4[nH]c5cc(OC)ccc5c4CCN3C[C@H]2C[C@@H](OC(=O)c2cc(OC)c(OC)c(OC)c2)[C@@H]1OC [Reserpine],percent Bodipy-positive cells,[2],82.8 ± 8.7%
CN(C)C(=O)COC(=O)Cc1ccc(OC(=O)c2ccc(NC(=N)N)cc2)cc1 [Camostat Mesilate],percent Bodipy-positive cells,[1],15.7 ± 3.3%
same,percent Bodipy-positive cells,[2],21.5 ± 8%
COc1ccc(Cc2cnc(N)nc2N)cc1OC,percent Bodipy-positive cells,[2],25.2 ± 4.7%
O=C(c1ccc(C=Cc2n[nH]c3ccccc23)cc1)N1CCNCC1,percent Bodipy-positive cells,[2],98.22 ± 0.91%
O=[N+]([O-])c1cccc2c(Br)[nH]nc12 [3-bromo-7-Nitroindazole],percent Bodipy-positive cells,[3],17.1 ± 18%
CC(Cc1ccccc1)(NC(=O)CN)c1ccccc1 (stereo unspecified) [Remacemide hydrochloride],percent Bodipy-positive cells,[2],31.7 ± 0.73%
COc1cc(C)c(Sc2cnc(NC(=O)c3ccc(CNC(C)C(C)C)cc3)s2)cc1C(=O)N1CCN(C(C)=O)CC1 (stereo unspecified),percent Bodipy-positive cells,[4],12.2 ± 1.3%
same,percent Bodipy-positive cells,[5],17.7 ± 7.7%
same,percent Bodipy-positive cells,[6],43.8 ± 4.6%
CC(C)(C)C(=O)OCOC(=O)[C@@H]1N2C(=O)[C@@H](NC(=O)[C@H](N)c3ccccc3)[C@H]2SC1(C)C [Pivampicillin],percent Bodipy-positive cells,,12.9 ± 4.5%
CCCCOc1c(C(=O)c2c(F)cc(C)cc2F)c[nH]c2nncc1-2,percent Bodipy-positive cells,[1],47.6 ± 0.76%
same,percent Bodipy-positive cells,[2],56.5 ± 3.1%
CC1(C)Oc2ccc(C#N)cc2[C@H](N2CCCC2=O)[C@H]1O [Cromakalim],percent Bodipy-positive cells,[2],2.95 ± 1.1%
COc1cccc(OC)c1OCCNCC1COc2ccccc2O1 (stereo unspecified) [WB-4101 hydrochloride],percent Bodipy-positive cells,[2],67 ± 13%
COc1cccc(OC)c1OCCNCC1COc2ccccc2O1 (stereo unspecified) [WB 4101 hydrochloride],percent Bodipy-positive cells,[2],29.8 ± 4.7%
Nc1ccccc1NC(=O)c1ccc(CNC(=O)OCc2cccnc2)cc1 [Entinostat (MS-275)],percent Bodipy-positive cells,[1],35 ± 0.7%
same,percent Bodipy-positive cells,[2],61.5 ± 5.2%
Nc1ccccc1NC(=O)c1ccc(CNC(=O)OCc2cccnc2)cc1,percent Bodipy-positive cells,[4],32.6 ± 3.6%
same,percent Bodipy-positive cells,[5],34.9 ± 8.6%
same,percent Bodipy-positive cells,[3],23.4 ± 3.1%
same,percent Bodipy-positive cells,[6],50.5 ± 7.5%
same,percent Bodipy-positive cells,[2],85.7 ± 1.9%
O=C1NCN(c2ccccc2)C12CCN(CCCC(c1ccc(F)cc1)c1ccc(F)cc1)CC2 [Fluspirilen],percent Bodipy-positive cells,,10.8 ± 1.5%
CC(=O)SCC[N+](C)(C)C [Acetylthiocholine chloride],percent Bodipy-positive cells,[2],31.2 ± 8.7%
NC(=O)Cc1cccc(C(=O)c2ccccc2)c1N [Nepafenac],percent Bodipy-positive cells,[1],7.34 ± 3.1%
same,percent Bodipy-positive cells,[2],5.99 ± 1.3%
C[C@H]1COC2=C1C(=O)C(=O)c1c2ccc2c1CCCC2(C)C [Cryptotanshinone],percent Bodipy-positive cells,[1],18.7 ± 6.2%
same,percent Bodipy-positive cells,[2],53.3 ± 6.3%
CN(C)CC[C@H](CSc1ccccc1)Nc1ccc(S(=O)(=O)NC(=O)c2ccc(N3CCN(Cc4ccccc4-c4ccc(Cl)cc4)CC3)cc2)cc1[N+](=O)[O-],percent Bodipy-positive cells,[4],10.8 ± 3.5%
same,percent Bodipy-positive cells,[5],19.8% and 9.39%
same,percent Bodipy-positive cells,[6],4.9% and 8.4%
same,percent Bodipy-positive cells,[1],13.7 ± 9.1%
same,percent Bodipy-positive cells,[2],14.8% and 2.75% and 3.88%
O=C(Nc1nc2ccccc2n1CCN1CCOCC1)c1cccc([N+](=O)[O-])c1 [IRAK-1/4 Inhibitor I],percent Bodipy-positive cells,[2],72.8 ± 19%
CC(C)COC(=O)OCN1C(=O)CN(CCN2CC(=O)N(COC(=O)OCC(C)C)C(=O)C2)CC1=O [Sobuzoxane],percent Bodipy-positive cells,[2],19.1 ± 1.7%
CCCCC1=NC2(CCCC2)C(=O)N1Cc1ccc(-c2ccccc2-c2nnn[nH]2)cc1 [Irbesartan],percent Bodipy-positive cells,library stock concentration: 4.7 mM,6.6 ± 2.7%
same,percent Bodipy-positive cells,[2],34.5 ± 7.5%
O=[N+]([O-])c1ccc2c(c1)S(=O)(=O)C=C2 [Stattic],percent Bodipy-positive cells,[2],98.68 ± 0.98%
CC[C@H]1OC(=O)[C@H](C)[C@@H](O[C@H]2C[C@@](C)(OC)[C@@H](O)[C@H](C)O2)[C@H](C)[C@@H](O[C@@H]2O[C@H](C)C[C@H](N(C)C)[C@H]2O)[C@](C)(OC)C[C@@H](C)C(=O)[C@H](C)[C@@H](O)[C@]1(C)O,percent Bodipy-positive cells,[2],36.6 ± 11%
CC[C@H]1OC(=O)[C@H](C)[C@@H](O[C@H]2C[C@@](C)(OC)[C@@H](O)[C@H](C)O2)[C@H](C)[C@@H](O[C@@H]2O[C@H](C)C[C@H](N(C)C)[C@H]2O)[C@](C)(OC)C[C@@H](C)C(=O)[C@H](C)[C@@H](O)[C@]1(C)O [Clarithromycin],percent Bodipy-positive cells,[1],10.5 ± 5.1%
same,percent Bodipy-positive cells,[2],16.5% and 40%

# Fetched one by one from above:
smiles,measurement,setting,value
CC(C)(C)C(=O)OCOC(=O)[C@@H]1N2C(=O)[C@@H](NC(=O)[C@H](N)c3ccccc3)[C@H]2SC1(C)C [Pivampicillin],percent Bodipy-positive cells,,12.9 ± 4.5%
CN(C)CC[C@H](CSc1ccccc1)Nc1ccc(S(=O)(=O)NC(=O)c2ccc(N3CCN(Cc4ccccc4-c4ccc(Cl)cc4)CC3)cc2)cc1[N+](=O)[O-],percent Bodipy-positive cells,[4],10.8 ± 3.5%
